Results of single-concentration screens

The values are deposited in ChEMBL (CHEMBL3988442, “University of Dundee, Small-Polar-MMV Screening Library” (2021)).

Mtb cholesterol medium: 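Growth of Mycobacterium tuberculosis over 4 days (cholesterol / DPPC medium with tyloxapol); the read-out is not stated. Concentration: 500 µM. The record gives no direction; compounds that gave an IC50 in retests scored well above the rest, so higher reads as more growth inhibition. About 18,000 compounds were tested under these conditions; 5% (about 900) showed 50% or more at least once.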
Mtb glucose medium: 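Whole-cell growth test on Mycobacterium tuberculosis, read after 3 days in glucose-containing 7H9 medium; the read-out is not stated. Tested at 500 µM. Higher reads as more growth inhibition (inferred: compounds with an IC50 in retests scored well above the rest). Of about 18,000 compounds tested this way, about 1,400 (7.9%) reached 50% or more in at least one test.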

The filed quantity is “Percent Effect” (%).
How 0% and 100% were set is not recorded. Most values in the screen are low, and negative values occur.
The compounds are a random part of those screened.

| # | Compound | Mtb cholesterol medium | Mtb glucose medium |
|---|---|---|---|
| 1 | `CCn1c(SCC(N)=O)nnc1-c1cc(Br)cs1` | 98.82 | 86.47 |
| 2 | `CSc1ccccc1NC(=O)Cn1ccc(=O)[nH]c1=O` | 10.08 | 9.094 |
| 3 | `CCC(C)C(=O)Nc1ccc(C(=O)N2CCCC2)cc1` (centres undefined) | -13.29 | 9.422 |
| 4 | `CCN1CC(C(=O)N2CCOC3(CCCC3)C2)CC1=O` (centres undefined) | -11.78 | 0.8515 |
| 5 | `CNC(=O)CCC(C)(C)NC(=O)c1ccc(COC)s1` | -0.6443 | 4.791 |
| 6 | `COc1cccc(C=C2CCNCC2)c1` | 37.24 | 48.4 |
| 7 | `CC(C)N(CC(N)=O)Cc1ccc(S(=O)(=O)N(C)C)o1` | 2.487 | 10.17 |
| 8 | `CCn1ncc2c1CCCC2N` (centres undefined) | -22.37 | -4.771 |
| 9 | `CN(CCO)S(=O)(=O)N1CCNCC1` | -2.612 | 5.417 |
| 10 | `NCCCOC1CCOC1` (centres undefined) | 1.126 | 7.015 |
| 11 | `O[C@@H]1CCNC[C@@H]1O` | -12.78 | -17.29 |
| 12 | `CCC(CO)NC(=O)c1ccc(F)cc1C(F)(F)F` (centres undefined) | -0.6914 | -0.692 |
| 13 | `N#CCCNCC1COc2ccccc2O1` (centres undefined) | 42.39 | 42.31 |
| 14 | `COCC1(C(=O)NCCCN(C)c2ccccc2)CC1` | 28.45 | 48.34 |
| 15 | `Cc1nc(C(C)C)sc1C(=O)N[C@H]1CC[C@H]1N` | 8.192 | 10.62 |
| 16 | `CCOC(=O)NC(O)C(=O)c1ccc(Cl)cc1` (centres undefined) | 24.15 | 32.98 |
| 17 | `CCC(O)COc1cc(C)ccc1C(N)=O` (centres undefined) | -3.675 | 12.48 |
| 18 | `NC(=O)C1CN(CCCc2ccccc2)CCO1` (centres undefined) | 20.21 | 25.97 |
| 19 | `O=C1/C(=C\c2cccnc2)Oc2cc(O)ccc21` | -3.997 | -0.8034 |
| 20 | `O=C(Nc1ccncc1)N[C@H](CO)Cc1ccccc1` | 1.797 | 33.2 |
| 21 | `CNS(=O)(=O)c1ccc2c(c1)oc(=O)n2C` | -1.27 | 2.01 |
| 22 | `CNC(=O)CC(C)N(C)C(=O)c1ccc2c(c1)CCC2` (centres undefined) | -4.522 | 21.92 |
| 23 | `CCCn1cc(NC(C)CCn2cncn2)cn1` (centres undefined) | 5.576 | 31.33 |
| 24 | `Nc1nc(N2CCC(CO)CC2)cc([C@H]2C[C@@H](N)C2)n1` | 9.249 | 2.272 |
| 25 | `O=C(CCn1cnnn1)NCc1cnn2ccccc12` | -1.043 | 13.2 |
| 26 | `FC(F)(F)c1ccc(NCCNCc2cc[nH]n2)nc1` | 9.179 | 10.45 |
| 27 | `O=C(c1c(F)cc(F)cc1F)C1CCNCC1` | 7.091 | 22.65 |
| 28 | `O=C(Cn1cc(Cl)cn1)N[C@@H]1CCNC[C@H]1O` | -3.35 | 4.423 |
| 29 | `CSCc1noc(CN2CC(C)(C)[C@@](C)(O)C2)n1` | 12.43 | 11.27 |
| 30 | `CC(O)(CN)c1cccc(Cl)c1` (centres undefined) | -0.8694 | 10.37 |
| 31 | `Cc1ccccc1N1C(=O)C=CC1=O` | 115.8 | 105 |
| 32 | `CCN(CC(=O)NC)S(=O)(=O)c1ncn(C)c1Cl` | -25.74 | -16.18 |
| 33 | `Cc1cccc(NCCC[S+](C)[O-])n1` (centres undefined) | 0.8088 | 8.041 |
| 34 | `Cc1nn(C)c(C)c1C(C)NC(=O)c1cccnc1` (centres undefined) | -14.56 | -3.12 |
| 35 | `CC(N)c1c(F)cccc1Cl` (centres undefined) | 6.74 | 14.26 |
| 36 | `Cc1cnn(CCNCc2ccc(C(N)=O)cc2)c1` | 2.82 | 10.1 |
| 37 | `CCNS(=O)(=O)C1CCN(Cc2csnn2)C1` (centres undefined) | 6.375 | 10.84 |
| 38 | `COc1cccc(Nc2nccc(=O)[nH]2)c1` | -4.619 | 3.264 |
| 39 | `CC(C)N1CCN(c2ccc3nnnn3n2)CC1` | -2.992 | 3.152 |
| 40 | `CN(CCCn1cccn1)C(=O)CN1CCCC(O)C1` (centres undefined) | 9.417 | 0.4052 |
| 41 | `N#Cc1cccc(NC(=O)NC2CCS(=O)(=O)C2)c1` (centres undefined) | 11.37 | 20.99 |
| 42 | `CCOCCOCC(O)CN` (centres undefined) | 3.482 | 2.724 |
| 43 | `NCCNCc1ccccn1` | 5.373 | 0.6646 |
| 44 | `CN(CC(N)=O)CC1CNCCO1` (centres undefined) | -15.86 | -7.404 |
| 45 | `CC(C)(C)C(=O)NC1CCCNC1` (centres undefined) | 9.34 | 4.748 |
| 46 | `N[C@H]1CCN(C(=O)c2cc(F)cc(C(F)(F)F)c2)C1` | -20.74 | 7.513 |
| 47 | `CN(Cc1ncnn1C)C(=O)Cc1ccc(O)cc1Cl` | -4.011 | 1.064 |
| 48 | `N[C@@H]1C[C@H]1c1ccc(F)cc1F` | 17.88 | 43.59 |
| 49 | `COCC(C)NC(=O)CCn1cnc2sccc2c1=O` (centres undefined) | 5.721 | 24.22 |
| 50 | `CN1CCOC(CCNC(=O)CCN2CCCCO2)C1` (centres undefined) | -17.43 | -12.19 |
| 51 | `OCC(F)(F)CNCc1cccc(-n2cccn2)c1` | 19.43 | 16.06 |
| 52 | `CCCC(=O)Nc1nnc(-c2ccccn2)s1` | 3.349 | 0.1933 |
| 53 | `CCN(Cc1ccncc1)C(=O)C(C)C` | 3.336 | 4.776 |
| 54 | `CCC[C@H](N)C(=O)NCCc1nc(COC)no1` | -7.388 | -10.59 |
| 55 | `Cn1ncnc1CN1CCCC1C(=O)N1CCSCC1` (centres undefined) | 6.352 | 2.74 |
| 56 | `CCN(CCO)C(=O)C(C)(C)Oc1ccc(F)cc1` | 20.93 | 21.09 |
| 57 | `FC(F)(F)c1cnc2c(c1)CNC2` | 6.399 | 21.61 |
| 58 | `CN(C)CCCN(C)c1cc(C2CC(N)C2)nc(N)n1` (centres undefined) | -15 | 19.43 |
| 59 | `NC(=O)C1CCN(C2=NS(=O)(=O)c3ccccc32)CC1` | -10.59 | 5.775 |
| 60 | `NC1CCCCNC1=O` (centres undefined) | -12.64 | -6.495 |
| 61 | `OCCn1cnc(Br)n1` | -11.72 | -3.148 |
| 62 | `O=C(c1c(O)cccc1F)N1CCc2cnccc21` | 40.37 | 29.52 |
| 63 | `CCN1CCC(CNC(=O)c2ccncc2F)C1` (centres undefined) | 10.01 | 11.31 |
| 64 | `OCCC1CCN(Cc2ccccc2)C1` (centres undefined) | 50.7 | -3.987 |
| 65 | `CC(C)Cc1cc(CNC(C)CO)no1` (centres undefined) | 3.082 | 7.903 |